Reference: publication PMC10786907
Results are given in words; binding and its absence hold for the method and conditions named. In cells and extracts the contact can be indirect. For some assays here: Binding can be weak; no strength is given. For some assays here: Sequences can lack the tags named with a protein.

T1: Flag-FBXO31 (UniProt Q5XUX0)
T1 sequence: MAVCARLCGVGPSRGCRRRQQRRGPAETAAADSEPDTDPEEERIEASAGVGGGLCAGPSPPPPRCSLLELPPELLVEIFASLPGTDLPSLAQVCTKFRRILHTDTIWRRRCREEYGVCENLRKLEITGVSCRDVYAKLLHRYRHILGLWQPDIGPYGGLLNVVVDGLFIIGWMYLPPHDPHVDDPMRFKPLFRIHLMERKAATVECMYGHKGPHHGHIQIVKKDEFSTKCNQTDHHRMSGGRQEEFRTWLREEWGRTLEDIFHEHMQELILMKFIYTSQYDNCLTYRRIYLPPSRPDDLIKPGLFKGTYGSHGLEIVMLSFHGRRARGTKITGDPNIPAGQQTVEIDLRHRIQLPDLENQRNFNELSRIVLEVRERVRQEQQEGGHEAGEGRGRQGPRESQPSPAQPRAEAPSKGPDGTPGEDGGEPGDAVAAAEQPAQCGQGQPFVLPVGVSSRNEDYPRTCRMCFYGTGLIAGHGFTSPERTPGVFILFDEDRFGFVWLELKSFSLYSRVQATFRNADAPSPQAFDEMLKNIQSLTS

B1: SIRT2 (protein, UniProt Q8IXJ6 1-389)
chain: MAEPDPSHPLETQAGKVQEAQDSDSDSEGGAAGGEADMDFLRNLFSQTLSLGSQKERLLDELTLEGVARYMQSERCRRVICLVGAGISTSAGIPDFRSPSTGLYDNLEKYHLPYPEAIFEISYFKKHPEPFFALAKELYPGQFKPTICHYFMRLLKDKGLLLRCYTQNIDTLERIAGLEQEDLVEAHGTFYTSHCVSASCRHEYPLSWMKEKIFSEVTPKCEDCQSLVKPDIVFFGESLPARFFSCMQSDFLKVDLLLVMGTSLQVQPFASLISKAPLSTPRLLINKEKAGQSDPFLGMIMGLGGGMDFDSKKAYRDVAWLGECDQGCLALAELLGWKKELEDLVRREHASIDAQSGAGVPNPSTSASPKKSPPPAKDEARTTEREKPQ

Experiments:
[1] = target: T1, Flag-FBXO31; test: co-IP; transfected cells (293T, Panc-1, PaTu-8988, SW1990) treated with 10 μM MG132 for 6 h; NP40 lysate; HA or Flag magnetic beads; washed 3 times with TBST; western blotting
[2] = target: FBXO31 ΔF-box (UniProt Q5XUX0); test: as above

Molecule | binding [1] | binding [2]
SIRT2 Δ-sirtuin (from UniProt Q8IXJ6) | no binding | –
B1 | – | binds
